Experimental data: PubChem BioAssay AID652243 (Drosophila RNAi Screening Center, 2013)
Test: 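Fly regulators of androgen-dependent reporter output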 (primary screen). Cells: Drosophila S2R+ cells. Knock-down reagent: long dsRNA against Drosophila genes. Timing: 72 h (48 h, then 24 h hormone). Challenge: synthetic androgen R1881 at 10 nM for 24 h. Measured: 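Firefly light from an androgen-responsive reporter and Renilla control light per well, raw and unnormalised, for each of two replicates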. Reading the numbers: firefly reporter light: higher = more light from androgen-responsive reporter; Renilla control light: higher = more constitutive control signal (cell number, transfection). Rule for the call: 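Across duplicate plates, a knock-down whose log firefly/Renilla ratio shifted a set fold down or up from the GFP/LacZ control mean was a hit; the downward cut appears as both 1.5 and 3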. Calls: active = hit: reporter lowered or raised; inactive = no hit.
The deposit covers about 24,000 reagents; this is a random part of those with a known target gene and a result. In the full data, 246 (1%) were called active. 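Plates not normalised; calls are printed but the firefly/Renilla ratio behind them is not deposited; fold cut for lowering reported inconsistently.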 Raw values are not corrected between plates. Not given: the amount of reagent.

Target gene,PubChem SID,"firefly reporter light, replicate 1","firefly reporter light, replicate 2","Renilla control light, replicate 1","Renilla control light, replicate 2",Call
CG31370,SID104201194,6.35e5,8.45e5,1.80e6,1.64e6,inactive
Hel89B,SID104196492,4.56e5,3.66e5,4.14e6,3.29e6,inactive
Hel89B,SID104201285,1.99e6,1.47e6,1.97e6,1.74e6,inactive
CG13041,SID104189714,2.57e5,2.68e5,2.75e6,1.91e6,inactive
CG13041,SID104205337,3.87e5,3.73e5,5.40e5,4.65e5,inactive
CG9682,SID104196328,90870,61845,6.24e5,4.07e5,inactive
CG9682,SID104204179,5.60e5,7.60e5,1.04e6,9.85e5,inactive
CG11672,SID104194136,1.42e5,1.15e5,3.06e6,2.58e6,inactive
Acn,SID104181854,5.37e5,7.95e5,8.59e5,9.86e5,inactive
Acn,SID104207789,4.01e5,5.21e5,1.00e6,8.04e5,inactive
Scm,SID104196645,1.92e5,2.02e5,3.22e6,3.53e6,inactive
CAH2,SID104190538,1.89e5,1.89e5,2.26e6,2.34e6,inactive
CG14330,SID104194601,2.17e5,1.60e5,2.32e6,2.42e6,inactive
knk,SID104195785,1.42e5,1.57e5,1.42e6,2.35e6,inactive
CG15706,SID104186369,33951,34192,5.19e5,5.19e5,inactive
CG10339,SID104183857,2.23e5,3.02e5,1.46e6,1.57e6,inactive
CG10171,SID104189503,5.81e5,6.42e5,1.00e6,9.21e5,inactive
CG10171,SID104204823,3.40e5,2.90e5,5.06e5,3.38e5,inactive
rdgB,SID104200157,2.87e5,1.89e5,2.31e6,3.07e6,inactive
rdgB,SID104206384,4.41e5,4.27e5,6.14e5,7.71e5,inactive
Cpr78E,SID104191599,3.30e5,2.32e5,2.60e6,2.49e6,inactive
CG7794,SID104196105,74237,60742,7.81e5,1.25e6,inactive
CG15449,SID104200313,2.74e5,1.58e5,9.48e5,6.94e5,inactive
TwdlC,SID104194541,1.20e5,1.69e5,2.01e6,2.14e6,inactive
TwdlC,SID104203801,1.62e6,1.20e6,1.34e6,8.62e5,inactive
CG14817,SID104198339,3.15e5,3.45e5,3.13e6,2.58e6,inactive
CG18545,SID104195135,1.04e5,1.67e5,1.43e6,1.99e6,inactive
CG14143,SID104189938,1.94e5,1.45e5,2.08e6,1.48e6,inactive
CG14143,SID104205047,5.44e5,5.10e5,6.79e5,4.21e5,inactive
tbrd-1,SID104194393,1.12e5,1.55e5,1.72e6,2.03e6,inactive
anne,SID104196895,8.41e5,5.15e5,1.43e6,7.13e5,inactive
anne,SID104208496,4.37e5,3.52e5,1.18e6,1.11e6,inactive
CG7542,SID104190660,2.21e5,1.18e5,2.47e6,1.57e6,inactive

In a second layout: 9 of the entries above
| Target gene | PubChem SID | firefly reporter light, replicate 1 | firefly reporter light, replicate 2 | Renilla control light, replicate 1 | Renilla control light, replicate 2 | Call |
| --- | --- | --- | --- | --- | --- | --- |
| CG15449 | SID104200313 | 2.74e5 | 1.58e5 | 9.48e5 | 6.94e5 | inactive |
| TwdlC | SID104194541 | 1.20e5 | 1.69e5 | 2.01e6 | 2.14e6 | inactive |
| TwdlC | SID104203801 | 1.62e6 | 1.20e6 | 1.34e6 | 8.62e5 | inactive |
| CG14817 | SID104198339 | 3.15e5 | 3.45e5 | 3.13e6 | 2.58e6 | inactive |
| CG18545 | SID104195135 | 1.04e5 | 1.67e5 | 1.43e6 | 1.99e6 | inactive |
| CG14143 | SID104189938 | 1.94e5 | 1.45e5 | 2.08e6 | 1.48e6 | inactive |
| CG14143 | SID104205047 | 5.44e5 | 5.10e5 | 6.79e5 | 4.21e5 | inactive |
| tbrd-1 | SID104194393 | 1.12e5 | 1.55e5 | 1.72e6 | 2.03e6 | inactive |
| anne | SID104196895 | 8.41e5 | 5.15e5 | 1.43e6 | 7.13e5 | inactive |

Continued.
Target gene,PubChem SID,"firefly reporter light, replicate 1","firefly reporter light, replicate 2","Renilla control light, replicate 1","Renilla control light, replicate 2",Call
Jhbp6,SID104191506,1.41e5,1.23e5,2.23e6,2.20e6,inactive
Jhbp6,SID104205436,3.30e5,4.03e5,6.92e5,8.19e5,inactive
COX7AL2,SID104216512,7.69e5,6.49e5,1.83e6,1.95e6,inactive
Naa60,SID104190093,1.89e5,1.86e5,1.78e6,1.81e6,inactive
Naa60,SID104204960,3.48e5,2.59e5,6.36e5,6.87e5,inactive
Duox,SID104205753,1.86e5,2.52e5,5.12e5,5.60e5,inactive
CG34370,SID104183705,2.63e5,2.34e5,3.09e5,4.46e5,inactive
CG34370,SID104183934,1.75e5,2.24e5,1.43e6,1.68e6,inactive
CG34370,SID104183935,3.76e5,2.98e5,2.01e6,1.51e6,inactive
CG34370,SID104183936,1.88e5,2.95e5,1.57e6,1.30e6,inactive
CG34370,SID104204807,4.77e5,5.56e5,5.04e5,5.62e5,inactive
CG34370,SID104215336,9.32e5,1.07e6,1.76e6,1.87e6,inactive
CG13992,SID104182116,2.16e5,2.31e5,7.77e5,1.02e6,inactive
CG8028,SID104199867,92513,56397,2.64e5,2.14e5,inactive
CG11095,SID104199167,58704,78358,6.11e5,5.68e5,inactive
CG11095,SID104204667,2.69e5,2.83e5,6.47e5,6.39e5,inactive
CG34185,SID104216270,7.98e5,1.01e6,1.80e6,2.31e6,inactive
CG33773,SID104216381,1.07e6,9.69e5,2.57e6,1.89e6,inactive
Pgam5-2,SID104184070,1.83e5,1.65e5,1.25e6,1.24e6,inactive
dac,SID104183310,2.39e5,2.00e5,2.24e6,2.30e6,inactive
GATAd,SID104182595,7.81e5,1.06e6,1.18e6,1.76e6,inactive
CG31459,SID104193172,1.91e5,2.36e5,3.29e5,4.59e5,inactive
CG7550,SID104190667,3.22e5,2.24e5,3.42e6,1.68e6,inactive
CG1138,SID104192322,50990,74829,1.08e6,1.00e6,inactive
fd102C,SID104196995,2.15e5,2.00e5,4.25e6,3.22e6,inactive
fd102C,SID104205111,4.22e5,3.66e5,6.76e5,6.26e5,inactive
